The values below are quoted from earlier work in patent US7618958B2, “Stereospecific anxiolytic and anticonvulsant agents with reduced muscle-relaxant, sedative-hypnotic and ataxic effects” (WISYS Technology Foundation, Inc., priority 2004, dated 2009).

Amino acid sequences for entries named in this document (tags omitted). Residues count along the entry.
UniProt P18507, 40-475: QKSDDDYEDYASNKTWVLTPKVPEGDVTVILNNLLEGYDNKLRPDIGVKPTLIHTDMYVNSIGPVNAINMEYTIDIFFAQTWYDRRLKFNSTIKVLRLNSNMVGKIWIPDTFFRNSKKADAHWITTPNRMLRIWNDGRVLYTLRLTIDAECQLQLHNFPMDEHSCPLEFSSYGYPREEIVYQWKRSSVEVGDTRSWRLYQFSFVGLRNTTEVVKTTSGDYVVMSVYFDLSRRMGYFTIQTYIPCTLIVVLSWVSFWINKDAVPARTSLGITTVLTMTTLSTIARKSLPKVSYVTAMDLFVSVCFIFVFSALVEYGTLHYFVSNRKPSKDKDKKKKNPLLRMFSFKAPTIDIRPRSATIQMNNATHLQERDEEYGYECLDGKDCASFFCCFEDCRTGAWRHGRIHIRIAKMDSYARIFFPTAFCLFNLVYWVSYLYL
UniProt P31644, 32-462: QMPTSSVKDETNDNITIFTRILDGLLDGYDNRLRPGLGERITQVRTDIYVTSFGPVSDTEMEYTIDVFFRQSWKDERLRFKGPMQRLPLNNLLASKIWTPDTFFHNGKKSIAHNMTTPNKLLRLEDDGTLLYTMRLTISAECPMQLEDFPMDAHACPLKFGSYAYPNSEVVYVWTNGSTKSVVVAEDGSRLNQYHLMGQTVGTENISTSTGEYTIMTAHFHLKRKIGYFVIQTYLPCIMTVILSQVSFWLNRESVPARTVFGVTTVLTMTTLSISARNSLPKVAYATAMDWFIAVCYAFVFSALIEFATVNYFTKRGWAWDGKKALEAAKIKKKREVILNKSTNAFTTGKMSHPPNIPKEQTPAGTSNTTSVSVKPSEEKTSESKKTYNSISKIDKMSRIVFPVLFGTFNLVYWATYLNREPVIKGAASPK

pKi: −log10 of the molar value.

The data set deals with GABAA/α5 receptors (Homo sapiens, UniProt P18507+P31644). The conditions noted are these: read-out: Ki, GABAA/α5 receptors; cited from earlier work.

With `CN1C(=O)CN=C(c2ccccc2)c2cc(Cl)ccc21` [Diazepam, reference compound], the pKi was above 7.60.
